PubChem BioAssay AID493246 – Drosophila RNAi Screening Center, 2011
The screen tested about 21,000 reagents; this is an unselected part of those that have a named target and a result. Of all reagents, 429 (2%) got an active call. 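Values are raw and not normalised between plates; calls rest on per-plate z-scores that were not deposited.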 Unmarked entries are inactive. Reagents against one gene are numbered here. Names joined by + are all predicted targets of the reagent. Not given: the amount of reagent, the time to read-out.

Test: 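Genes fly cells need to grow and stay alive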 (primary screen)
Cells: Drosophila Kc and S2R+ cells
Reagents: long dsRNA against Drosophila genes
Read-out: 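Raw, unnormalised count of remaining cells in each well; per-plate z-scores of cell number underlie the calls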
Direction: Kc cell number and S2R+ cell number: higher = more cells remaining
Call rule: 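Active when the per-plate z-score of cell number is 3 or more in the direction of fewer cells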

predicted target,dsRNA no.,"Kc cell number, rep 1","Kc cell number, rep 2","S2R+ cell number, rep 1","S2R+ cell number, rep 2"
Teh3 (tipE homolog 3),1,1.35e6,1.59e6,1.14e6,1.31e6
CG7997,1,1.42e6,1.46e6,1.10e6,1.14e6
CG31115,1,1.27e6,1.51e6,1.15e6,1.15e6
Gr36c (Gustatory receptor 36c),1,1.73e6,1.65e6,1.36e6,1.44e6
CG42564,1,1.46e6,1.58e6,1.29e6,1.41e6
CG31730,1,1.43e6,1.52e6,1.00e6,1.10e6
CG9168,1,1.32e6,1.33e6,9.81e5,1.24e6
Sgt (small glutamine-rich tetratricopeptide containing protein),1,1.21e6,1.38e6,1.18e6,1.30e6
CG14950 (retired record),1,1.38e6,1.39e6,1.05e6,1.19e6
CG8562,1,1.45e6,1.31e6,1.09e6,1.19e6
Vps39 (Vacuolar protein sorting 39),1,1.65e6,1.68e6,1.34e6,1.40e6
pall (pallbearer),1,1.21e6,1.31e6,1.32e6,1.21e6
Khc (Kinesin heavy chain),1,1.33e6,1.37e6,1.15e6,1.20e6
CG13314,1,1.45e6,1.22e6,1.16e6,1.23e6
prc (pericardin),1,1.26e6,1.24e6,1.26e6,1.37e6
Fic (Fic domain-containing protein),1,1.11e6,1.39e6,7.00e5,8.35e5
AdoR (Adenosine receptor),1,1.44e6,1.44e6,9.91e5,1.10e6
c12.2,1,1.76e6,1.58e6,1.01e6,1.06e6
l(3)80Fj (lethal (3) 80Fj),1,1.17e6,1.36e6,1.11e6,1.13e6
l(3)80Fj (lethal (3) 80Fj),2,1.46e6,1.41e6,1.03e6,1.14e6
Gyc88E (Guanylyl cyclase at 88E),1,1.25e6,1.33e6,1.10e6,1.27e6
CG15517,1,1.52e6,1.54e6,1.08e6,1.16e6
CG34054,1,1.46e6,1.44e6,9.99e5,1.13e6
CCHa1 (CCHamide-1),1,1.43e6,1.56e6,7.65e5,8.35e5
CG9485,1,1.53e6,1.66e6,1.13e6,1.28e6
CR46300 (pseudo),1,1.81e6,1.88e6,1.19e6,1.44e6
Tat (Tyrosine aminotransferase),1,1.50e6,1.47e6,1.09e6,1.09e6
Cpr97Ea (Cuticular protein 97Ea),1,1.40e6,1.45e6,9.64e5,1.09e6
sug (sugarbabe),1,1.44e6,1.47e6,1.27e6,1.31e6
CG33169,1,1.37e6,1.36e6,1.35e6,1.44e6
CG8329,1,1.50e6,1.52e6,1.40e6,1.39e6
RtGEF (Rho-type guanine nucleotide exchange factor),1,1.72e6,1.91e6,1.38e6,3.78e5
CG32032,1,1.59e6,1.72e6,1.11e6,1.26e6
Whamy (WHAMM and JMY related),1,1.47e6,1.46e6,1.30e6,1.36e6
Ufc1 (Ubiquitin-fold modifier conjugating enzyme 1),1,1.35e6,1.46e6,1.17e6,1.17e6

8 of these entries, reformatted:
CG7997 | Kc cell number, rep 1 = 1.42e6; Kc cell number, rep 2 = 1.46e6; S2R+ cell number, rep 1 = 1.10e6; S2R+ cell number, rep 2 = 1.14e6
CG31115 | Kc cell number, rep 1 = 1.27e6; Kc cell number, rep 2 = 1.51e6; S2R+ cell number, rep 1 = 1.15e6; S2R+ cell number, rep 2 = 1.15e6
Gr36c (Gustatory receptor 36c) | Kc cell number, rep 1 = 1.73e6; Kc cell number, rep 2 = 1.65e6; S2R+ cell number, rep 1 = 1.36e6; S2R+ cell number, rep 2 = 1.44e6
CG42564 | Kc cell number, rep 1 = 1.46e6; Kc cell number, rep 2 = 1.58e6; S2R+ cell number, rep 1 = 1.29e6; S2R+ cell number, rep 2 = 1.41e6
CG31730 | Kc cell number, rep 1 = 1.43e6; Kc cell number, rep 2 = 1.52e6; S2R+ cell number, rep 1 = 1.00e6; S2R+ cell number, rep 2 = 1.10e6
CG9168 | Kc cell number, rep 1 = 1.32e6; Kc cell number, rep 2 = 1.33e6; S2R+ cell number, rep 1 = 9.81e5; S2R+ cell number, rep 2 = 1.24e6
Sgt (small glutamine-rich tetratricopeptide containing protein) | Kc cell number, rep 1 = 1.21e6; Kc cell number, rep 2 = 1.38e6; S2R+ cell number, rep 1 = 1.18e6; S2R+ cell number, rep 2 = 1.30e6
CG14950 (retired record) | Kc cell number, rep 1 = 1.38e6; Kc cell number, rep 2 = 1.39e6; S2R+ cell number, rep 1 = 1.05e6; S2R+ cell number, rep 2 = 1.19e6

The list goes on.
predicted target,dsRNA no.,"Kc cell number, rep 1","Kc cell number, rep 2","S2R+ cell number, rep 1","S2R+ cell number, rep 2"
CG4198,1,6.39e5,,8.57e5,
CG3515,1,1.57e6,1.62e6,1.08e6,1.29e6
Dbx,1,1.54e6,1.34e6,9.91e5,1.21e6
Dbx,2,1.48e6,1.29e6,9.81e5,1.27e6
Dbx,3,1.51e6,1.29e6,1.01e6,1.15e6
CG13038,1,1.79e6,1.87e6,1.21e6,1.39e6
nst (nesthocker),1,1.44e6,1.52e6,1.39e6,1.20e6
Hers (Histone gene-specific Epigenetic Repressor in late S phase),1,1.48e6,1.56e6,1.04e6,1.21e6
Hers (Histone gene-specific Epigenetic Repressor in late S phase),2,1.42e6,1.44e6,1.06e6,1.14e6
Ric (Ras-related protein interacting with calmodulin),1,1.65e6,1.66e6,1.34e6,1.57e6
CG15393 (retired record),1,1.49e6,1.52e6,1.06e6,1.19e6
CG7953,1,1.30e6,1.36e6,1.26e6,1.29e6
lin (lines),1,1.72e6,1.71e6,1.40e6,1.51e6
bonsai,1,1.43e6,1.59e6,1.22e6,1.29e6
CG7227,1,1.24e6,1.28e6,5.65e5,7.90e5
CG6761,1,1.29e6,1.36e6,1.40e6,1.31e6
CG3176 + CR18166 + CG32817,1,1.14e6,1.28e6,1.05e6,1.11e6
CG3176 + CR18166 + CG32817,2,1.12e6,1.23e6,1.08e6,1.08e6
CG3176 + CR18166 + CG32817,3,5.42e5,,8.60e5,
CG1077,1,1.58e6,1.69e6,1.38e6,1.54e6
mRpS17 (mitochondrial ribosomal protein S17),1,1.48e6,1.58e6,1.28e6,1.28e6
Pect (Phosphoethanolamine cytidylyltransferase),1,1.59e6,1.61e6,9.80e5,1.02e6
Pect (Phosphoethanolamine cytidylyltransferase),2,1.78e6,1.82e6,1.03e6,1.14e6
Pxt (Peroxinectin-like),1,1.50e6,1.50e6,1.06e6,1.18e6
